Assay results reported in paper PMC5666619.
These are yes or no findings as the source states them, for the method shown. In cells and extracts the contact can be indirect. A result given as binding can be weak or reduced; the word gives no strength. Tags and fused reporters may be left off the sequences shown.

Protein sequences, listed by entry. Tags and fused reporters are not part of them. Lines headed by an entry give the natural chain unless they say otherwise; changes in a name come on top.
UniProt A0A0B4KEC4: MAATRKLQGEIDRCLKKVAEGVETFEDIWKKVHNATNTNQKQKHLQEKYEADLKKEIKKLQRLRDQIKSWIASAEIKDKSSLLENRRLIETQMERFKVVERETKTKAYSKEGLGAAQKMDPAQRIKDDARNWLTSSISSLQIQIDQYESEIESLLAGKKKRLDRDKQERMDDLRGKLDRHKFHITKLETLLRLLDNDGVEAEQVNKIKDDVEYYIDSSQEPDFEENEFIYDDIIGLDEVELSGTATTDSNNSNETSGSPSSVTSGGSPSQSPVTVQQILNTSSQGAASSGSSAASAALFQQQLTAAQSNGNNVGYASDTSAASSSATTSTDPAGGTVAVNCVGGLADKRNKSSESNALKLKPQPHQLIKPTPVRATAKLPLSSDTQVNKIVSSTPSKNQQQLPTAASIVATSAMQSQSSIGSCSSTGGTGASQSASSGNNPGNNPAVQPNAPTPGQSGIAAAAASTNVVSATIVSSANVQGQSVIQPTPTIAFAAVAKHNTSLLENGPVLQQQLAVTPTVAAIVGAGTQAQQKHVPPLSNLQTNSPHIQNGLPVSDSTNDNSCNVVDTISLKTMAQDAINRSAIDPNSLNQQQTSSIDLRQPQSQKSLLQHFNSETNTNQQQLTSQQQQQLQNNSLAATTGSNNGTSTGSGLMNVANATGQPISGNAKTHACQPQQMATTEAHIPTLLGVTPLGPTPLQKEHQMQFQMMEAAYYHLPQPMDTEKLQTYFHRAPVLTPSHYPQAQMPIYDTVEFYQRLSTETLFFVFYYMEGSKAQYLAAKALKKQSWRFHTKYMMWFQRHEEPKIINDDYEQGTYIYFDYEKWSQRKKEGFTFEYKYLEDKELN

Molecular target: T1, GFP-Aub (Aubergine) (Drosophila) (UniProt O76922)
T1 sequence: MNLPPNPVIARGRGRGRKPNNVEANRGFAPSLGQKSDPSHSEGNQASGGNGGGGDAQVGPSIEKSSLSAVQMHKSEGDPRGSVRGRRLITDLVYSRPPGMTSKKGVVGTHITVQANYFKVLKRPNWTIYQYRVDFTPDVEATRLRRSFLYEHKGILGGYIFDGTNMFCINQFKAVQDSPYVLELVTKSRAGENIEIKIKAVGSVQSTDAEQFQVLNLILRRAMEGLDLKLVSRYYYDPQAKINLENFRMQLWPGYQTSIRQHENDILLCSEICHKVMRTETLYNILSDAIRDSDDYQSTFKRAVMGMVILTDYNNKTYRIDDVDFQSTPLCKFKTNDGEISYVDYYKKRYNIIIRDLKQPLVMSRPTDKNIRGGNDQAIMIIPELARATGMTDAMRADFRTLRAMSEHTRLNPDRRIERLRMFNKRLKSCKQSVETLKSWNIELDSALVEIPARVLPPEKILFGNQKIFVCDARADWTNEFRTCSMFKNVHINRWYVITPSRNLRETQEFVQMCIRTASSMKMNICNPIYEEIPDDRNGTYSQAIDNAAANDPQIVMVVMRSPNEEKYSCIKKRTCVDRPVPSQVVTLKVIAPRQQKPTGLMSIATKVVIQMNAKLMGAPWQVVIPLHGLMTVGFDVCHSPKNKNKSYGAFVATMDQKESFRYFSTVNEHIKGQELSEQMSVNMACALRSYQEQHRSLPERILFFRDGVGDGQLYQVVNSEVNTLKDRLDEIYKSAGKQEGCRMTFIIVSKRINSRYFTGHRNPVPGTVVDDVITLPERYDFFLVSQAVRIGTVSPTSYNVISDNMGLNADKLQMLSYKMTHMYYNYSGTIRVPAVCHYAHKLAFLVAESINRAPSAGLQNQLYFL
Test: co-IP; ovarian extracts (60 ovaries, 3-day-old females) in DXB-150 (25 mM Hepes-KOH pH 6.8, 250 mM sucrose, 1 mM MgCl2, 1 mM DTT, 150 mM NaCl, 0.1% Triton X-100) with RNase inhibitor or RNase A; IP with mouse anti-GFP (3E6) on Dynabeads Protein G, 3 h at 4°C; Western blot; wild-type extract as mock IP

| binding | Substance |
| --- | --- |
| binds | CCR4 (Drosophila (endogenous in ovaries)) (enzyme) |
| binds | NOT3 (from UniProt A0A0B4KEC4) |
